Measured values published in the supplement of paper PMC12819154, “High-throughput peptide-centric local stability assay extends protein–ligand identification to membrane proteins, tissues and bacteria” (Nature Structural & Molecular Biology, 2025).
The list shows a part of the results. Most values lie at the level of the controls, where differences are scatter.

Protein sequences, listed by entry. Tags and fused reporters are not part of them. Lines headed by an entry give the natural chain unless they say otherwise; changes in a name come on top.
UniProt Q6PFY9: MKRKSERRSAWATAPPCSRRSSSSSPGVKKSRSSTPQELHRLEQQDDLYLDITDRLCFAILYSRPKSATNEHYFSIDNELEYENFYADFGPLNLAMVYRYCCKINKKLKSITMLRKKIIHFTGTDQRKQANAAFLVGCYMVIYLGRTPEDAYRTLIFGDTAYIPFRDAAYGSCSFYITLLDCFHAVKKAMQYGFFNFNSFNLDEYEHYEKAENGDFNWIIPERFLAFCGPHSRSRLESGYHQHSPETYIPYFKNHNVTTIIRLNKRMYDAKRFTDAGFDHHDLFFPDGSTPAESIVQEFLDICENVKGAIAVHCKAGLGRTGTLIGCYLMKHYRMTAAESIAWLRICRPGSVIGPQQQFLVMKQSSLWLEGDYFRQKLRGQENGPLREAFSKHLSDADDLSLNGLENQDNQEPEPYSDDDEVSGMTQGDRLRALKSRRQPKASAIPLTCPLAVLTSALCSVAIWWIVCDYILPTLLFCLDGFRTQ
UniProt Q6IRU5: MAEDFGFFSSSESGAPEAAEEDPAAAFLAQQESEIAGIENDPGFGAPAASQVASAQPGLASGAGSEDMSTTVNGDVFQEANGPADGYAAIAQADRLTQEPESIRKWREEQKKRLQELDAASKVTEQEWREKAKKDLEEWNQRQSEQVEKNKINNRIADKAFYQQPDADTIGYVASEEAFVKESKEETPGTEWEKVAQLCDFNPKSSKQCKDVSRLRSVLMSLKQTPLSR
UniProt Q6NZP2: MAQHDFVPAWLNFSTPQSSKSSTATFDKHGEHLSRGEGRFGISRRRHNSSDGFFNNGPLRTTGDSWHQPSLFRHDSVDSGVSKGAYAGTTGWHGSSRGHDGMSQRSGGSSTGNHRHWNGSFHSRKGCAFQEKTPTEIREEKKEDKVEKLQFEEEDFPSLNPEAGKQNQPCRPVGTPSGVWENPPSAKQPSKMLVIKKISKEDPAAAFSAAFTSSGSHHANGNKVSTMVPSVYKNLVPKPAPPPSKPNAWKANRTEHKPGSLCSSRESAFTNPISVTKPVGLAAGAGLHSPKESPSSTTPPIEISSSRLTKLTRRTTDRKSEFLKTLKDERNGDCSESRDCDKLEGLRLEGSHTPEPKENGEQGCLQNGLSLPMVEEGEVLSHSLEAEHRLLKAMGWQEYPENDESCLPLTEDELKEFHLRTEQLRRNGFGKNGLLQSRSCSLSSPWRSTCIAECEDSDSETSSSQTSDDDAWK
UniProt Q6PGH2: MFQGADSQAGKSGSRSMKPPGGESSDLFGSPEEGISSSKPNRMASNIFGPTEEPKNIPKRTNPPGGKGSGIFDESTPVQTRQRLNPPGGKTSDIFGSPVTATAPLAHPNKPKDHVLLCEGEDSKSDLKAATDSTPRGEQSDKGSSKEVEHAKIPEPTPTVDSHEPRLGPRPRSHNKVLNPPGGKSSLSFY
UniProt Q6NSR3: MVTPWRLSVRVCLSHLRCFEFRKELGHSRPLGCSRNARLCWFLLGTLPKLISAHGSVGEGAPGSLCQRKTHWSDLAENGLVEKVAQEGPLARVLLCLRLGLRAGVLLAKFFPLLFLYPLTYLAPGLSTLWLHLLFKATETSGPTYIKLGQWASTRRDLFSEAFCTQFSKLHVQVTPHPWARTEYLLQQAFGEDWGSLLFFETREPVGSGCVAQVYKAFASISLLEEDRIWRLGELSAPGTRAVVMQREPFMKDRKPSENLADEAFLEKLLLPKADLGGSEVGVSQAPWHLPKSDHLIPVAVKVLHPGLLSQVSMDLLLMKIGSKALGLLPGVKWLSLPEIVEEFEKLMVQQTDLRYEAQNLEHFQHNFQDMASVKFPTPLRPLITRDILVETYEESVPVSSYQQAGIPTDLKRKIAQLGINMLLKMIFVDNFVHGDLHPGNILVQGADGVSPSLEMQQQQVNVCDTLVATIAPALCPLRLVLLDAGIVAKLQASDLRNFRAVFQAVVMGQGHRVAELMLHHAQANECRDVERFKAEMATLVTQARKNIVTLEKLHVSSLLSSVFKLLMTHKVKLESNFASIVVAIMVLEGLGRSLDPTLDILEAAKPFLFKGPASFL
UniProt Q6P7W2: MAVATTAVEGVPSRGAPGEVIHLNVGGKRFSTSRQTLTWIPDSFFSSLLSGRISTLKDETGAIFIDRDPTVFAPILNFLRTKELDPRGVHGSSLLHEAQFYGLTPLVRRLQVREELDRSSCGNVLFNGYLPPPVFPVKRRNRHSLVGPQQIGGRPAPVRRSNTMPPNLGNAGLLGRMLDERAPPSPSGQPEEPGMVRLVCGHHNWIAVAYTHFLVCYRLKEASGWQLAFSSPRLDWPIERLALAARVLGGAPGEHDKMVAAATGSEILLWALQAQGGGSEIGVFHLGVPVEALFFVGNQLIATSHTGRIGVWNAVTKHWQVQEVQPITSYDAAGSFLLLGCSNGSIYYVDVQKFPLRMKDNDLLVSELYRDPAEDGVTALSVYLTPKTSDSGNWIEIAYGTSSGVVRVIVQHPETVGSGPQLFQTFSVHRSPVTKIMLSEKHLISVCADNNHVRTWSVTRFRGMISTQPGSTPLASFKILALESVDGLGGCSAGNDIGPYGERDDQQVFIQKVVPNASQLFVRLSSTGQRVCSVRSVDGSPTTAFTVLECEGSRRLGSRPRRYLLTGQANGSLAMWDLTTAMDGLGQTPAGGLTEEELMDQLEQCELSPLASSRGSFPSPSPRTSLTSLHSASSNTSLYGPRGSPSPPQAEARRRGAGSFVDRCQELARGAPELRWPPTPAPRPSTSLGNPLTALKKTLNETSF
UniProt Q69ZS7, whole entry: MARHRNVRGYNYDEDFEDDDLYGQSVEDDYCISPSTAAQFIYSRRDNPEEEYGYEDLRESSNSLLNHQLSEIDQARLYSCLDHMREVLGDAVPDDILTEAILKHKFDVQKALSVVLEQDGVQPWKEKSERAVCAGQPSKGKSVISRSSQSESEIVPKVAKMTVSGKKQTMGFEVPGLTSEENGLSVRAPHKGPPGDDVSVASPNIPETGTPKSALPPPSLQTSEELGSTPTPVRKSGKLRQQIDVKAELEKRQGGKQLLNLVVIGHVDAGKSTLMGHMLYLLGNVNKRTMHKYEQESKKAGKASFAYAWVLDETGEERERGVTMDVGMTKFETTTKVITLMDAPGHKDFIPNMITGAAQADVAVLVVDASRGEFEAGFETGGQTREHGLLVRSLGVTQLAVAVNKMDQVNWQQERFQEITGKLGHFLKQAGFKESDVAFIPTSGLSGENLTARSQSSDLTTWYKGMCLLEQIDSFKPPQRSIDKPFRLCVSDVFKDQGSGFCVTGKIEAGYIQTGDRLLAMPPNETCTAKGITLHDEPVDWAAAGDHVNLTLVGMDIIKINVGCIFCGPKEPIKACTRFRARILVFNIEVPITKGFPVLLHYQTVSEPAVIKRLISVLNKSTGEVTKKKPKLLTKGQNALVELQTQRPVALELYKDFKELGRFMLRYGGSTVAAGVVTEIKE
UniProt Q6P7W0: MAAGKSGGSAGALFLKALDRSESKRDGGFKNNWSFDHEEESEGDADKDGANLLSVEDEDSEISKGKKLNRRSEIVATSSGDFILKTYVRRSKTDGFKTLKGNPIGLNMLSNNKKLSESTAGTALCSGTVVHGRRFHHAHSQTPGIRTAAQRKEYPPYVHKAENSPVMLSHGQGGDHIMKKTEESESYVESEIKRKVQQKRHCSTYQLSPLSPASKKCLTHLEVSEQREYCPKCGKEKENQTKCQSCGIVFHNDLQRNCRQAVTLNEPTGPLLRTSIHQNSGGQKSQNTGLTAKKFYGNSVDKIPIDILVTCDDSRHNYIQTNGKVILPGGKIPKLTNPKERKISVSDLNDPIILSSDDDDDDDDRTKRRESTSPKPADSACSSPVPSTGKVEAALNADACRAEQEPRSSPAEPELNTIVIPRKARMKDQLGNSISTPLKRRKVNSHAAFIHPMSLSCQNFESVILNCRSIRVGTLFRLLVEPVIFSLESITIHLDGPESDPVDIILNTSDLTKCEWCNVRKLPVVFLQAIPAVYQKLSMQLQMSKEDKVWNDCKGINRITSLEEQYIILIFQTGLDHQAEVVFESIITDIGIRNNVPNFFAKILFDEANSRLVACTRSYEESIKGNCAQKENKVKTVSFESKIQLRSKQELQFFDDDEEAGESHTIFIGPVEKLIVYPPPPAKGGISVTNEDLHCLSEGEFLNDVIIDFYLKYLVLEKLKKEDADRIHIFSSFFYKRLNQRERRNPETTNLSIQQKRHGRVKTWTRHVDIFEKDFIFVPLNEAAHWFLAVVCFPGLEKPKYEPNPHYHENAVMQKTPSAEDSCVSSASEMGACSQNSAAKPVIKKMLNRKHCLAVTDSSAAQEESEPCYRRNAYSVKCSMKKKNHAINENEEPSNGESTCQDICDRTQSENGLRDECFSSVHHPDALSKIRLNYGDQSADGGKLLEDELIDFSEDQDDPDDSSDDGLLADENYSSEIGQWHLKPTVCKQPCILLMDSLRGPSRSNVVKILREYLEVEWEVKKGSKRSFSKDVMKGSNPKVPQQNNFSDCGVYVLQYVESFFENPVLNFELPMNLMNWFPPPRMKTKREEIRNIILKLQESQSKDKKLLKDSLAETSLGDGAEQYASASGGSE
UniProt Q6P5F7: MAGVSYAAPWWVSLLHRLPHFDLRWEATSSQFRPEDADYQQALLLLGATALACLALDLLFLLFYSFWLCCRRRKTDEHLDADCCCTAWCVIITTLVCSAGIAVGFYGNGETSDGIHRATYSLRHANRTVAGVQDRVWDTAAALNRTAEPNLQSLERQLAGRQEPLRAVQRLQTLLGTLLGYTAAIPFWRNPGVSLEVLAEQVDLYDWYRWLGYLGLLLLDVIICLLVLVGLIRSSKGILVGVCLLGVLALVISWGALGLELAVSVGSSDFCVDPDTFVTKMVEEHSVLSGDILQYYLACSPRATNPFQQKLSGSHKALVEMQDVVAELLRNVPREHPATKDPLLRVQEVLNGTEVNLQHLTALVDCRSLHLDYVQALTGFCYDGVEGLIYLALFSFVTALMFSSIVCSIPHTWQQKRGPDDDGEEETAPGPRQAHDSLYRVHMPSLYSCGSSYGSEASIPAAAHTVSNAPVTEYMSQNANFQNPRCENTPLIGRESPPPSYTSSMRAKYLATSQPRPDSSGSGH
UniProt Q6A039: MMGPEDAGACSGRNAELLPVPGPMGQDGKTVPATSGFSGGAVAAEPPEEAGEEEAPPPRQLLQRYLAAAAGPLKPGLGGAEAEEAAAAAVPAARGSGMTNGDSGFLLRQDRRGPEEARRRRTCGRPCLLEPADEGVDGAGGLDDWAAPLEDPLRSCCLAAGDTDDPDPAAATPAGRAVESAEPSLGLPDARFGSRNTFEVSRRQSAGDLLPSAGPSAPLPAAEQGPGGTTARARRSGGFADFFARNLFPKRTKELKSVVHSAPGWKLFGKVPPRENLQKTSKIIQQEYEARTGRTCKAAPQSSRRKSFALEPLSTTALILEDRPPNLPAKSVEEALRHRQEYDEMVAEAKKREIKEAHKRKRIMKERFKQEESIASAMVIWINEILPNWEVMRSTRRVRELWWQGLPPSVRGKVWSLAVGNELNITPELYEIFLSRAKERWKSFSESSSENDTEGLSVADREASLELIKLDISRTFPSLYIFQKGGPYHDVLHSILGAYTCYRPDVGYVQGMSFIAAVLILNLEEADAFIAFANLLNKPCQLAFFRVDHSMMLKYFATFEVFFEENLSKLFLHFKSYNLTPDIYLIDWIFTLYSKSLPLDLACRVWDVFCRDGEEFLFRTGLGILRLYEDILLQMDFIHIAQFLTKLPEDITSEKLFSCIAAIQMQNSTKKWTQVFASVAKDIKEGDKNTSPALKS
UniProt Q69ZX8: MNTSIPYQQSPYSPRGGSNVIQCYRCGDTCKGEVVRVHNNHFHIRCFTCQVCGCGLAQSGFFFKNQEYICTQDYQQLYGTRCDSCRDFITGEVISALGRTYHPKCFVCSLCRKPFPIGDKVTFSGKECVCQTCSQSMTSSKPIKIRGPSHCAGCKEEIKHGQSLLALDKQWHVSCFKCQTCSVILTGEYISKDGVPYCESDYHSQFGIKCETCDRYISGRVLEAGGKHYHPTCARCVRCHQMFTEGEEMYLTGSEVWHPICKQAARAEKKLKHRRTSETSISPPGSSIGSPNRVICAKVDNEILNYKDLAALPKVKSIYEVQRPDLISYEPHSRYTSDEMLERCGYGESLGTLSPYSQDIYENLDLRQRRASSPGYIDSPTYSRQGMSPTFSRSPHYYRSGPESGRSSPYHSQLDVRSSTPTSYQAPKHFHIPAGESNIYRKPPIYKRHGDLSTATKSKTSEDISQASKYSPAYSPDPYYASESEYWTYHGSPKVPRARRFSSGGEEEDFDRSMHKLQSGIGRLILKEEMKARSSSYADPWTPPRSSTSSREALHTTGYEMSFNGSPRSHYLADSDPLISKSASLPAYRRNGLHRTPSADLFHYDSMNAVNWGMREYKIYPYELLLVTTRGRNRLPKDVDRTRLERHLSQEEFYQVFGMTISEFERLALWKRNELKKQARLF

compound: CN[C@@H]1C[C@H]2O[C@@](C)([C@@H]1OC)n1c3ccccc3c3c4c(c5c6ccccc6n2c5c31)C(=O)NC4 [staurosporine]; test: log2 fold change of tryptic peptide abundance, ligand vs vehicle (limited proteolysis) (log2 ratio); higher = more trypsin-susceptible (destabilized); details: ligand concentration: 20 uM; sample: mouse liver crude lysate; replicate design: treated separately

Target | log2 fold change
UniProt Q6PFY9 (peptide sequence: GQENGPLR, peptide start residue: 380) | -0.212
UniProt Q6IRU5 (peptide sequence: LQELDAASKVTEQEWR, peptide start residue: 114) | -0.189
UniProt Q6NZP2 (peptide sequence: VSTMVPSVYK, peptide start residue: 224) | 0.299
UniProt Q6PGH2 (peptide sequence: QRLNPPGGK, peptide start residue: 82) | -0.295
UniProt Q6NSR3 (peptide sequence: LGELSAPGTR, peptide start residue: 232) | 0.0353
UniProt Q6P7W2 (peptide sequence: HSLVGPQQIGGRPAPVRR, peptide start residue: 143) | -0.197
UniProt Q69ZS7 (peptide sequence: SIDKPFR, peptide start residue: 481) | 0.243
UniProt Q6P7W0 (peptide sequence: KHCLAVTDSSAAQEESEPCYRR, peptide start residue: 850) | 0.794
UniProt Q6P5F7 (peptide sequence: YLATSQPRPDSSGSGH, peptide start residue: 509) | -0.25
UniProt Q6A039 (peptide sequence: SGGFADFFAR, peptide start residue: 236) | -0.143
UniProt Q69ZX8 (peptide sequence: VHNNHFHIR, peptide start residue: 37) | -0.79

In a second layout: entries from further up
UniProt Q6IRU5 (peptide sequence: LQELDAASKVTEQEWR, peptide start residue: 114)
  log2 fold change: -0.189
UniProt Q6A039 (peptide sequence: SGGFADFFAR, peptide start residue: 236)
  log2 fold change: -0.143
